These are yes or no findings as the source states them, for the method shown. In cells and extracts the contact can be indirect. Some binding calls cover weakened binding; strength is not graded here.

Chains of the proteins cited; added tags and fusions are not shown. Lines headed by an entry give the natural chain unless they say otherwise; changes in a name come on top.
UniProt P03372: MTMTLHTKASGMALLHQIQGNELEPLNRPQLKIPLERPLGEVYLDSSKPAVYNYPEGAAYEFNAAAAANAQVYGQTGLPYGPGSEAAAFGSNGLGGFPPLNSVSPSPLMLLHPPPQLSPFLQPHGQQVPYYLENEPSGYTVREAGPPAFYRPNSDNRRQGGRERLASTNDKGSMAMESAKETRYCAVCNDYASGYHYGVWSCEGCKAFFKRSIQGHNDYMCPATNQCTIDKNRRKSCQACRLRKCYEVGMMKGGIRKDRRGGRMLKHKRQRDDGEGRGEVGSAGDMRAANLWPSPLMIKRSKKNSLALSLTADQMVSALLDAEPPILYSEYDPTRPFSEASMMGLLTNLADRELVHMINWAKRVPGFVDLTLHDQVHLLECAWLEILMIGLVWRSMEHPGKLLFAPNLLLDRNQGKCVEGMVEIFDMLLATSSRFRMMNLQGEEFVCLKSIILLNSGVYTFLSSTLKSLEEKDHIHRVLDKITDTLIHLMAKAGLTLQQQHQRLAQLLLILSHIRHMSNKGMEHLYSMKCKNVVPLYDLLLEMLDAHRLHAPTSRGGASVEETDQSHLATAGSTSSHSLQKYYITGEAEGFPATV
UniProt P25786: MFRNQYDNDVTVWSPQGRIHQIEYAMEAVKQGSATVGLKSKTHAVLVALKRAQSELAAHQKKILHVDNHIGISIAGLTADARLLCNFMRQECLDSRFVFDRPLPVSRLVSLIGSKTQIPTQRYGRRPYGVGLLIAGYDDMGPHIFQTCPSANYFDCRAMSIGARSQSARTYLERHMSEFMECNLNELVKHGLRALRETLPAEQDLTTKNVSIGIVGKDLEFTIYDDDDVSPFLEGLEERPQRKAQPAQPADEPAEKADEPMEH
UniProt Q8IZL8: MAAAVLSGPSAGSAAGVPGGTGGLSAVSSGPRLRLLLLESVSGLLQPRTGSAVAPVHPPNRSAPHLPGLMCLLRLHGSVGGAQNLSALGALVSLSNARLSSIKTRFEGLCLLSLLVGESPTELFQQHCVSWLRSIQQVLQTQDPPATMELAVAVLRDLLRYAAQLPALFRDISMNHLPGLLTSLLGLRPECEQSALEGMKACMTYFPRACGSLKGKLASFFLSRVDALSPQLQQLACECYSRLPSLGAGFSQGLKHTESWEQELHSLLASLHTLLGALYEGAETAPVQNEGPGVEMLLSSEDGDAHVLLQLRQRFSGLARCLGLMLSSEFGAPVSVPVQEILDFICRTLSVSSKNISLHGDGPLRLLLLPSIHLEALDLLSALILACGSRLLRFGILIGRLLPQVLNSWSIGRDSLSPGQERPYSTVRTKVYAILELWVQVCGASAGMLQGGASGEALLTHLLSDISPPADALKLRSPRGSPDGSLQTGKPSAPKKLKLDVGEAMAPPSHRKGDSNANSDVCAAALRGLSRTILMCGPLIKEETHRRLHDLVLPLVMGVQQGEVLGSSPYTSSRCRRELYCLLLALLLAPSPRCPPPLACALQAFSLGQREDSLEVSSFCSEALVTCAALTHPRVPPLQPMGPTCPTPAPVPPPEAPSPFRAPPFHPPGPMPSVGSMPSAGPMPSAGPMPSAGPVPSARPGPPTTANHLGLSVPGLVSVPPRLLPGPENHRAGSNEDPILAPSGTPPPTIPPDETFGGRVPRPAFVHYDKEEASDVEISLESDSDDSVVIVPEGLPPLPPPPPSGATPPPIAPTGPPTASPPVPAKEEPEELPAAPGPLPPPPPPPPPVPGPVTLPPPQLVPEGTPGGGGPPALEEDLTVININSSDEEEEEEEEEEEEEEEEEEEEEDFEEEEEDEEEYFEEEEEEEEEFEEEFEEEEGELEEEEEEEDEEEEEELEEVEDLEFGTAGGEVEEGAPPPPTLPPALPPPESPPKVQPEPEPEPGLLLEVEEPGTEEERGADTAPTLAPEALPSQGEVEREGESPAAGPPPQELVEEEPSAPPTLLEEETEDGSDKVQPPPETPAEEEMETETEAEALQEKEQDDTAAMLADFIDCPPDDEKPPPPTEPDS
UniProt P62195: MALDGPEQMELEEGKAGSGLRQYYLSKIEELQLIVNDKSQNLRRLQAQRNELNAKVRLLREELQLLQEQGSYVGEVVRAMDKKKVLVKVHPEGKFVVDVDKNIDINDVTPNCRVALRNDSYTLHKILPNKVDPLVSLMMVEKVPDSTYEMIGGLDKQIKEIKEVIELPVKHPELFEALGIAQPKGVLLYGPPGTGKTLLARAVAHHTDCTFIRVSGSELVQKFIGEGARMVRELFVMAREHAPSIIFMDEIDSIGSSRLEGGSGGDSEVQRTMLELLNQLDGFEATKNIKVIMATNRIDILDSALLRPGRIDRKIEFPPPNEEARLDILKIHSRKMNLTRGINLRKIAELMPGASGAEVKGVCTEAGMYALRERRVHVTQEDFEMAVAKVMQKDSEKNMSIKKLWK

For test [1], the target named is ESR1-YAP1 fusion protein (recombinant, purified) (UniProt P03372). Kind of test: pull-down; ERE DNA pulldown as for MS (purified receptor on immobilised 4xERE DNA, HeLa S3 nuclear extract), independent samples, no E2, read by immunoblotting; only the target purified. On the technique in general: In western blotting, separated proteins are transferred to a membrane and probed.

The target of test [2] is Y537S ERα (recombinant, purified) (UniProt P03372). The test is described as above.

Turning to “20S C2/PSMA1, endogenous (from UniProt P25786 1-263)”, the binding entry in test [1] is “binds”.

Consider “PELP1, endogenous (from UniProt Q8IZL8 1-1130)”, for which, in test [2], the binding entry is on record as “binds”.

Consider “SUG1/PSMC5, endogenous (from UniProt P62195 1-406)”, for which the binding result in test [1] was “binds”.

The values above are taken from publication PMC6095836.
